# Results published in PMC12037725.
# Results are given in words; binding and its absence hold for the method and conditions named. In cells and extracts the contact can be indirect. Some results given as binding are weak or reduced against the parent protein; the word gives no strength. For part of these data: Tags and fused reporters may be left off the sequences shown.
# T1: BTS (BRUTUS), nYFP fusion for BiFC (Arabidopsis thaliana) (UniProt Q8LPQ5)
# T1 sequence: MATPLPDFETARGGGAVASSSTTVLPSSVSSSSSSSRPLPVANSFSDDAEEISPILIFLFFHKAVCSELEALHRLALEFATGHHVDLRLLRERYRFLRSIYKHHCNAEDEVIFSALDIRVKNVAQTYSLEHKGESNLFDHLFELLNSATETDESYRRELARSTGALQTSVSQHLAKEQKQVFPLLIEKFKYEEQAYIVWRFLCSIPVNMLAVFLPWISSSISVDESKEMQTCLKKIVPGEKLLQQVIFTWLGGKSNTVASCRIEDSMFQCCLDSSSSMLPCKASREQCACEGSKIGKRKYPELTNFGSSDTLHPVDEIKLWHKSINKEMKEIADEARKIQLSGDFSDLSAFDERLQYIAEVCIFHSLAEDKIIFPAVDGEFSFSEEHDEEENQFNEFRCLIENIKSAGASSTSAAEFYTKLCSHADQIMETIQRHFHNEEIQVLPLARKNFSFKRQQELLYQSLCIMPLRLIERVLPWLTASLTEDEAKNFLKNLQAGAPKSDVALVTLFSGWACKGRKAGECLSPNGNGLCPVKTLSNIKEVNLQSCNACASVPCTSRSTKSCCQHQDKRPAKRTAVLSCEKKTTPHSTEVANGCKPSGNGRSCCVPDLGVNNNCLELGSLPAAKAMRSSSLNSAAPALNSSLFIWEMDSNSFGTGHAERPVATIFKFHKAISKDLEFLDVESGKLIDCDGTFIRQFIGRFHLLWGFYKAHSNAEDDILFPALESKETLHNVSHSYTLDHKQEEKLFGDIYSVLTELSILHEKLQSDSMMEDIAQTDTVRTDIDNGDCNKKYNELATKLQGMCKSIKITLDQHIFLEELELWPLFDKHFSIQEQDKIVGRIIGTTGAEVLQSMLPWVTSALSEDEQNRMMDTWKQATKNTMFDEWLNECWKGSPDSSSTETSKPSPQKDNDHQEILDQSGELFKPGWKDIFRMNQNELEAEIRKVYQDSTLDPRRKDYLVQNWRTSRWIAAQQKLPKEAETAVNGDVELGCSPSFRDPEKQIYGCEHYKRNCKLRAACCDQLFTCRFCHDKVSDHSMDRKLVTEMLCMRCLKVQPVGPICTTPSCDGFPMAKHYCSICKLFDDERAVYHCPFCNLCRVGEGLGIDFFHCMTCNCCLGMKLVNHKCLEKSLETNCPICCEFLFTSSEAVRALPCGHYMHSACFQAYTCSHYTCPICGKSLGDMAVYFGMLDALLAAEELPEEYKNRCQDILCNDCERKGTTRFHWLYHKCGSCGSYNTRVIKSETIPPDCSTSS
# T2: ILR3 (IAA-leucine resistant 3), nYFP fusion for BiFC (Arabidopsis thaliana) (UniProt Q9FH37)
# T2 sequence: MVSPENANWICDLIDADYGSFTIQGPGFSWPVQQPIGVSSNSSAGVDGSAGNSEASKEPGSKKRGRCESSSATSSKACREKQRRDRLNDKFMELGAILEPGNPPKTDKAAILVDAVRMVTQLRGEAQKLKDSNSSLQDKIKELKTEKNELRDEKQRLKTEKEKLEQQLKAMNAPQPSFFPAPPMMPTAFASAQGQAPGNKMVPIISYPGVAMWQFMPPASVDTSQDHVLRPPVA
# T3: ILR3, luciferase-half fusion for split-LUC (Arabidopsis thaliana) (UniProt Q9FH37)
# T3 sequence: T2 sequence
# T4: BTS (BRUTUS), luciferase-half fusion for split-LUC (Arabidopsis thaliana) (UniProt Q8LPQ5)
# T4 sequence: T1 sequence
# T5: ILR3 for co-immunoprecipitation (Arabidopsis thaliana) (UniProt Q9FH37)
# T5 sequence: T2 sequence
# T6: BTS-FLAG for co-immunoprecipitation (Arabidopsis thaliana) (UniProt Q8LPQ5)
# T6 sequence: T1 sequence
# B1: RH24 (DEAD-box RNA helicase 24), cYFP fusion for BiFC (enzyme, UniProt O22907 1-760)
# chain: MSNRKFGMEGFGINRQTSYSFERSQAPQRLYVPPSSRGGDNSEDADLDNIDYMENEEAEEDIEEGGSAAASGGEVDEIDPLDAFMEGIHQEMKSAPPPKPKEKLERYKDDDDDPVESYLKAKKDLGLTLAADALNAGYNSDEEVYAAAKAVDAGMLDYDSDDNPIVVDKRKIEPITALDHSSIDYEPINKDFYEELESISGMTEQETTDYRQRLGIRVSGFDVHRPVKTFEDCGFSSQIMSAIKKQAYEKPTAIQCQALPIVLSGRDVIGIAKTGSGKTAAFVLPMIVHIMDQPELQRDEGPIGVICAPTRELAHQIFLEAKKFSKAYGLRVSAVYGGMSKHEQFKELKAGCEIVVATPGRLIDMLKMKALTMMRASYLVLDEADRMFDLGFEPQVRSIVGQIRPDRQTLLFSATMPWKVEKLAREILSDPIRVTVGEVGMANEDITQVVNVIPSDAEKLPWLLEKLPGMIDEGDVLVFASKKATVDEIEAQLTLNSFKVAALHGDKDQASRMETLQKFKSGVHHVLIATDVAARGLDIKSLKTVVNYDIAKDMDMHVHRIGRTGRAGDRDGVAYTLVTQREARFAGELVNSLVAAGQNVPPELTDLAMKDGRFKSKRDGRKGGKKGRGGGGGNKGVRGVDFGLGIGFSSESSRTPSSKAAPSRSGAINSVRTGVMAQFKNSFVAATPSNPQNQAYPNKRPSLMGFVSGGTIGGDMGRTQSQAPPVAPTQNASSHNSSQNHSQSSENRPRERKRRSGWDN
# B2: RH24, luciferase-half fusion for split-LUC (enzyme, UniProt O22907 1-760)
# chain: B1 chain
# B3: RH24-T7 for co-immunoprecipitation (enzyme, UniProt O22907 1-760)
# chain: B1 chain
# Experiments:
# [1] = molecular target: T1, BTS (BRUTUS), nYFP fusion for BiFC (Arabidopsis thaliana); experiment: split reporter; BiFC with nYFP and cYFP fusions, transiently expressed in N. benthamiana leaves for 48 h (also Arabidopsis protoplasts); confocal microscopy
# [2] = molecular target: T2, ILR3 (IAA-leucine resistant 3), nYFP fusion for BiFC (Arabidopsis thaliana); experiment: as above
# [3] = molecular target: T3, ILR3, luciferase-half fusion for split-LUC (Arabidopsis thaliana); experiment: split reporter; split-luciferase complementation imaging; nLUC and cLUC constructs co-infiltrated into N. benthamiana leaves, 0.5 mM luciferin after 48 h, CCD camera
# [4] = molecular target: T4, BTS (BRUTUS), luciferase-half fusion for split-LUC (Arabidopsis thaliana); experiment: as above
# [5] = molecular target: T5, ILR3 for co-immunoprecipitation (Arabidopsis thaliana); experiment: co-IP; proteins transiently expressed in N. benthamiana leaves; immunoblot with anti-FLAG and anti-T7
# [6] = molecular target: T6, BTS-FLAG for co-immunoprecipitation (Arabidopsis thaliana); experiment: as above
binder,measurement,setting,value
B1,binding,[1],binds
same,binding,[2],binds
B2,binding,[3],binds
same,binding,[4],binds
B3,binding,[5],binds
same,binding,[6],binds
